In PubChem BioAssay AID504834 (National Center for Advancing Translational Sciences (NCATS), 2011):
Among all 320,000 compounds or so, about 22,000 (6.9%) were called active. Inconclusive means that the source gave no clear call. Such entries were picked first, then a sample of the others. The call rests on the fitted dose curve; in most records, active means well fitted inhibition curve with a large enough effect; inconclusive means small, poorly fitted or top-dose-only effect, or another doubt; inactive means no such curve, though single readings can be large or run the other way. Where the call is inconclusive, the potency comes from a doubtful curve fit.

Assay: Primary qHTS for delayed death inhibitors of the malarial parasite plastid, 96 hour incubation
Settings: P. falciparum luciferase reporter growth; series mostly up to 28.7 µM
Summary of the method: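 P. falciparum expressing integrated firefly luciferase, in erythrocytes at 2% hematocrit, 0.05% parasitemia, incubated with compounds 96 h at 37 C, 5% CO2. Growth inhibition read as loss of luminescence; two-generation exposure targets delayed-death apicoplast inhibitors.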
On the % scale 0 is the no-effect control and ±100 the full control effect; potency means the concentration at half of the fitted maximal effect.

Structure (SMILES)	Potency	activity change, negative = inhibition
Cc1ccccc1/C=N\NC(=O)c1ccccc1-n1cccc1	inconclusive: 0.117 µM [inhibitor, full curve, poor fit]	–
Cc1nc2ccccc2nc1N/N=C/c1ccc(O)cc1O	active: 2.94 µM	–
CCCCN1C2CCCC1CC(NC(=O)c1cccc(OC)c1)C2 (centres undefined)	inconclusive: 14.7 µM [inhibitor, partial curve, poor fit]	–
CCCCN(C(=O)c1cc(=O)[nH]c2ccccc12)c1c(N)n(CCCC)c(=O)[nH]c1=O	inactive	–
CCC(=Nc1ccc(OC)cc1OC)c1c(O)[nH]c(=O)[nH]c1=O	–	inactive: -28.7% [at 5.75 µM]
CCCN(CC(=O)Nc1cc(Cl)cc(Cl)c1)CC(=O)Nc1ccc(F)c(F)c1F	active: 9.28 µM	–
COc1ccccc1C(=O)N1CCN(CCNC(=O)C(=O)Nc2ccc(Br)c(C)c2)CC1	inconclusive: 18.5 µM [inhibitor, single point]	–
CCO[C@@H]1OC(C(=O)N2CCOCC2)=C[C@H](c2cn(C(C)=O)c3ccccc23)[C@H]1CCCO	inactive	–
CCOC(=O)c1c(NC(=O)Nc2ccc(C)cc2)sc2c1CCN(C)C2	active: 3.7 µM	–
CC(C)CNC(=O)CC(=O)N/N=C/c1ccc(F)cc1	inconclusive: 18.5 µM [inhibitor, single point]	–
O=C(O)C1CC(=O)N(CCOc2ccccc2)C1 (centres undefined)	inconclusive: 18.5 µM [inhibitor, single point]	–
CC1(C)CC(=O)C=C(NC2CCCCC2)C1	inconclusive: 11.7 µM [inhibitor, single point]	–
Cn1cccc1/C=N/NC(=O)c1ccco1	inconclusive: 1.65 µM [inhibitor, partial curve, poor fit]	–
C=CCN(C(=O)c1cc(C)cc(C)c1)C1(C(=O)Nc2ccccc2)CCN(C(C)C)CC1	inconclusive: 1.47 µM [inhibitor, full curve, poor fit]	–
O=C(COc1ccc2ccccc2c1)N1CCN(C(=O)c2cccnc2)CC1	inconclusive: 2.62 µM [inhibitor, full curve, poor fit]	–
Cc1nc(SCC(=O)Nc2ccc(N3CCOCC3)cc2)nc(C)c1C	inconclusive: 1.04 µM [inhibitor, partial curve, poor fit]	–
COc1ccc(NC(=S)N(CCCN2CCC(C)CC2)Cc2cccs2)cc1	active: 5.86 µM	–
O=C(CSc1ccc2nnc(CCNC(=O)c3ccccc3)n2n1)NCc1ccccc1	inconclusive: 0.0657 µM [inhibitor, full curve, poor fit]	–
Cn1c(=O)c(C(=O)Nc2ncccn2)c(O)c2ccccc21	inconclusive: 11.7 µM [inhibitor, single point]	–

Some of these compounds in order of molecular weight, smallest number first.
Structure (SMILES)	Potency	activity change, negative = inhibition
Cc1ccccc1/C=N\NC(=O)c1ccccc1-n1cccc1	inconclusive: 0.117 µM [inhibitor, full curve, poor fit]	–
O=C(COc1ccc2ccccc2c1)N1CCN(C(=O)c2cccnc2)CC1	inconclusive: 2.62 µM [inhibitor, full curve, poor fit]	–
O=C(CSc1ccc2nnc(CCNC(=O)c3ccccc3)n2n1)NCc1ccccc1	inconclusive: 0.0657 µM [inhibitor, full curve, poor fit]	–
